Our source for the AC50 values is PubChem BioAssay AID493014 (National Center for Advancing Translational Sciences (NCATS), 2011).

This is one part of the list. Shown are side measurements of this screen, not its main read-out; they come without a call. Compounds called inactive in the main read-out are mostly missing here. Words in brackets tell the shape of the fitted curve; partial curves, single points and poor fits give uncertain potencies.

The nature of this test: qHTS Assay to Find Inhibitors of Chronic Active B-Cell Receptor Signaling. The conditions noted are these: ABC-DLBCL IkBa-CBG/CBR reporter, luminescence ratio (green luciferase fused to IkBa over red control in TMD8 lymphoma cells), 4 h. Put shortly:
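Compounds up to 46 uM were incubated four hours with TMD8 cells whose green CBG68 luciferase is fused to IkappaBalpha; red CBR luminescence normalised the signal, and concentration-effect curves were fitted to fusion, red and ratio data.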

Setting [1] is: measured here: CBR red luminescence, cell number.
[2] abbreviates: measured here: IkBa-CBG green luminescence.

For the molecule `COc1ccc(CNC(=O)Cn2nc([N+](=O)[O-])cc2C)cc1`, the AC50 under setting [1] is 0.316 µM [rising, full curve, poor fit].
Turning to `O=S(=O)(NC1CCCC1)c1cc(F)ccc1F`, the AC50 under setting [1] is 22.4 µM [rising, partial curve, poor fit].
As for `O=C(N/N=C/c1ccc2cccc(OCc3ccccc3)c2n1)c1ccc(Br)cc1`, the AC50 under setting [1] was 7.08 µM [falling, partial curve].
Same read-out and setting: the same measure for `Cc1ccc(S(=O)(=O)N2CCCCC2)cc1NC(=O)CCN1C(=O)C2CC=CCC2C1=O` (stereo not drawn): 29.1 µM [rising, single point]; for `Cc1ccc(CNC(=O)Cn2nnc(C(=O)Nc3cccc(C)c3C)c2N)cc1`: 7.08 µM [rising, full curve, poor fit]; for `CN(CCO)CCOCCOc1cccc2ccccc12`: 35.5 µM [falling, single point].
With `CCC(C)[C@H](NC(=O)NC1CC1)C(=O)O` (stereo partly drawn), the AC50 under setting [1] was 35.5 µM [falling, single point].
In the case of `COc1ccccc1-c1nnc2n1N=C(C(C)(C)C)CS2`, under setting [1], the AC50 is 29.1 µM [rising, single point].
In the case of `Cc1cc2ncn(/N=C/c3ccc([N+](=O)[O-])s3)c2cc1C`, the AC50 under setting [1] was 3.26 µM [rising, partial curve].
For `C=CCN(CC=C)C(=S)NC(=O)c1ccc(OC)cc1`, the AC50 is 6.31 µM [rising, partial curve] under setting [1] and 11.2 µM [falling, partial curve] under setting [2].
As to `COCCNC(=O)c1cc(-c2ccccc2C)n(CC2CC(c3cccc([N+](=O)[O-])c3)=NO2)n1` (stereo not drawn), under setting [1], the AC50 was 29.1 µM [falling, single point].
The same measure, in the same setting: the same measure for `COc1cccc(-c2nc(CS(=O)(=O)CC(=O)NCCCN3CC(C)CC(C)C3)c(C)o2)c1` (stereo not drawn): 25.1 µM [falling, single point]; for `CC(C)c1ccc(C(=O)CSc2ncn[nH]2)cc1`: 28.2 µM [falling, single point]; for `Clc1ccc(OCCSc2ncccn2)c(Br)c1`: 2.51 µM [rising, partial curve].
On the same count and under the same terms, with `Cc1cccc(NC(=S)NCCc2ccccn2)c1` the figure was 12.6 µM [rising, partial curve, poor fit]; with `Cc1ccc(-c2csc(NC(=O)CN3CC(C)OC(C)C3)n2)cc1` (stereo not drawn), 15.8 µM [falling, single point].
For `C=CCN=C1S/C(=C\c2ccc(N(C)C)cc2)C(=O)N1CC=C`, the AC50 under setting [1] is 2 µM [rising, partial curve, poor fit].
`COc1ccc(C)cc1NC(=O)C(Sc1ccccc1)c1ccccc1` (stereo not drawn): the AC50 under setting [1] is 3.26 µM [falling, single point].
`Cc1cc(C)n(Cc2ccc(C(=O)O)o2)n1`: the AC50 under setting [1] is 1.26 µM [rising, full curve, poor fit].
The same measure, in the same setting: with `Cc1ccc2nc(SCc3cccc([N+](=O)[O-])c3)nc(C)c2c1` the figure was 5.62 µM [rising, single point]; with `CC(=O)Nc1cccc(NC(=O)Nc2ccc(F)cc2F)c1`, 1.78 µM [falling, full curve]; with `Cn1c(-c2ccc(F)cc2)cnc1NCc1ccccc1F`, 20 µM [falling, single point].
The same measure, in the same setting: with `CCCC[C@@H](CNC)NC[C@H](NCCCCC1CCCCC1)C(C)C` the figure was 10 µM [falling, partial curve, poor fit]; with `C=CCn1c(=NC(=O)C2COc3ccccc3O2)sc2cc(S(N)(=O)=O)ccc21` (stereo not drawn), 3.66 µM [rising, full curve, poor fit].
On the same count and under the same terms, with `Cc1c(CC(=O)NCCC(=O)O)c(=O)oc2cc3oc4c(c3cc12)CCCC4` the figure was 22.4 µM [falling, single point]; with `CCOC(=O)CNC(=O)c1sc(NC(=O)c2ccccc2)nc1C`, 13 µM [falling, partial curve]; with `COc1ccc(-n2c(COc3ccccc3)nnc2SCc2ccc(C#N)cc2)cc1`, 9.2 µM [falling, partial curve].
`O=C(O)c1ccc2c(c1)C(=O)N(c1ccc([N+](=O)[O-])cn1)C2=O`: the AC50 under setting [1] was 20 µM [falling, single point].
As for `COc1ccccc1OCCCN1C(=O)C(=O)c2cccc(C)c21`, the AC50 under setting [2] is 17.8 µM [falling, partial curve].
`CSc1cccc(NC(=O)C2CCN(S(=O)(=O)c3ccc4c(c3)NC(=O)CO4)CC2)c1`: under setting [1], the AC50 was 35.5 µM [falling, single point].
On to `O=C(O)C1C2CCC(C2)C1C(=O)NCc1ccccn1` (stereo not drawn), for which, under setting [1], the AC50 is 3.55 µM [rising, partial curve, poor fit].
On to `Cc1ccccc1CSc1nnc2[nH]c(=O)cc(C)n12`, for which, under setting [1], the AC50 was 17.8 µM [rising, partial curve, poor fit].
As for `O=S(=O)(NCc1cn2ccccc2n1)c1ccccc1F`, the AC50 under setting [1] was 35.5 µM [rising, single point].
As for `Cc1cc(C(=O)Nc2nc3ccc(S(C)(=O)=O)cc3s2)c(C)o1`, the AC50 under setting [1] is 0.13 µM [falling, full curve, poor fit].
On the same count and under the same terms, with `COc1cc(Cl)c(C)cc1NC(=O)CSc1nnc(-c2cccnc2)n1Cc1ccco1` the figure was 35.5 µM [falling, single point].
For `O=C(OCCc1cc2ccccc2c(=O)o1)c1ccco1`, the AC50 under setting [1] was 9.2 µM [rising, partial curve].
As to `CCC(c1nnnn1Cc1ccco1)N(CCc1ccccc1)Cc1cc2ccc(OC)cc2[nH]c1=O` (stereo not drawn), the AC50 under setting [1] is 35.5 µM [falling, partial curve, poor fit].
The same measure, in the same setting: with `c1ccc(-n2ncc3c(NC4CCCCCC4)ncnc32)cc1` the figure was 7.08 µM [falling, partial curve, poor fit]; with `CCN(CC)C(=O)c1cc(Cl)ccn1`, 11.2 µM [rising, single point].
On the same count and under the same terms, with `O=C(N/N=C/c1cccnc1)c1cc(-c2ccc(Br)cc2)nc2ccccc12` the figure was 17.8 µM [rising, single point]; with `O=C(NC(Cc1ccccc1)C(=O)O)c1ccccc1` (stereo not drawn), 35.5 µM [falling, partial curve, poor fit].
With `COc1ccc(C(=O)CCN2CCc3cc(OC)c(OC)cc3C2)cc1`, under setting [1], the AC50 was 14.1 µM [falling, partial curve].
On the same count and under the same terms, the same measure for `O=C(Nc1cccc2cccnc12)c1ccc(Cl)cc1`: 22.4 µM [falling, partial curve].
Still for that read-out and setting: the same measure for `Cc1ccc(C)c(CN2CCNC2=O)c1`: 0.0891 µM [rising, full curve, poor fit]; for `O=c1c2ccccc2nc(-c2cccc(Cl)c2)n1O`: 16.4 µM [falling, partial curve].
Still for that read-out and setting: the same measure for `CC1C(=O)N2CCCc3cc(S(=O)(=O)Nc4ccccc4F)cc1c32` (stereo not drawn): 2.06 µM [rising, partial curve]; for `CCN(CC)C(=O)c1cc2c(=O)oc3ccccc3c2s1`: 29.1 µM [falling, single point].
As to `O=C(NCCCCO)C(F)(F)C(F)(F)C(F)(F)C(=O)NCCCCO`, the AC50 under setting [1] was 35.5 µM [falling, single point].
The same measure, in the same setting: the same measure for `O=C(Nc1ccccc1C(=O)N1CCOCC1)c1cc2ccccc2o1`: 7.08 µM [falling, partial curve, poor fit]; for `CC(C)n1c(=S)[nH]c2ccccc21`: 16.4 µM [rising, single point].
In the case of `O=C(Nc1nc2ccccc2[nH]1)c1cc2ccccc2o1`, the AC50 under setting [1] is 0.501 µM [falling, full curve].
Regarding `Cc1ccc(CONC(=O)c2ccc(Cl)cc2)cc1`, the AC50 under setting [1] is 5.8 µM [falling, full curve].
On the same count and under the same terms, with `COC(=O)c1ccc(N=Cc2c(-c3ccccc3)[nH][nH]c2=O)cc1` the figure was 11.2 µM [falling, partial curve, poor fit]; with `CC(C)Cn1c(CCC(=O)O)ccc1-c1cccs1`, 4.61 µM [rising, single point].
Take `Cc1ccc(/C=C2/SC(=S)N(c3ccc(S(=O)(=O)Nc4nccs4)cc3)C2=O)cc1`: the AC50 under setting [1] is 12.6 µM [falling, partial curve].
Same read-out and setting: with `O=C(/C=C/c1ccccc1)c1ccc2c3c(cccc13)CC2` the figure was 0.231 µM [rising, partial curve]; with `O=C(CCC(=O)Nc1ccccc1)NNS(=O)(=O)c1ccc(Cl)cc1`, 0.891 µM [falling, full curve].
Still for that read-out and setting: the same measure for `C/C(=N\NC(=O)c1ccc(Cn2cc(Br)cn2)o1)c1cccc(NC(=O)C(C)C)c1`: 11.6 µM [falling, single point].
On the same count and under the same terms, with `CCCc1ccc(-c2cc(C(=O)NN3CCOCC3)c3ccccc3n2)cc1` the figure was 1.26 µM [falling, full curve, poor fit].
Consider `O=C(Cn1ncc2c3ccccc3n(Cc3ccccc3)c2c1=O)NCCCN1CCCC1=O`, for which the AC50 under setting [1] was 14.1 µM [falling, single point].
Still for that read-out and setting: with `CCN(CC)c1ccc(N=Nc2ncn[nH]2)cc1` the figure was 14.1 µM [rising, partial curve, poor fit]; with `O=C(Nc1sc2c(c1-c1nc3ccccc3[nH]1)CCCC2)C1CCCC1`, 11.2 µM [falling, partial curve, poor fit].
Take `COc1cccc(/C=N/NC(=O)c2cccc(N3CCCC3=O)c2)c1`: under setting [1], the AC50 is 11.2 µM [falling, partial curve].
As to `COc1ccccc1OCCNC1CCCC1`, the AC50 under setting [1] is 0.0731 µM [falling, full curve, poor fit].
The same measure, in the same setting: the same measure for `Cn1c2ccccc2c2c(C(=O)O)cn(C3CCCC3)c(=O)c21`: 29.1 µM [falling, single point]; for `Cc1ccc(C)c(NC(=O)C2CCN(C(=O)c3cccs3)CC2)c1`: 7.94 µM [rising, partial curve]; for `Cc1cccc(NC(=O)/C=C/c2ccc([N+](=O)[O-])s2)c1`: 3.66 µM [falling, partial curve].
